Experimental data published in PubChem BioAssay AID588590 (National Center for Advancing Translational Sciences (NCATS), 2011).
In all, about 390,000 compounds went through this assay and about 4,000 (1%) were called active. The shares of active, inactive and inconclusive entries below differ from those in the screen. Calls follow the shape of the dose curve; as a rule, active = well fitted inhibition curve with a large enough effect; inconclusive = small, poorly fitted or top-dose-only effect, or another doubt; inactive = no such curve, though single readings can be large or run the other way. Potencies beside an inconclusive call are fits to weak or partial responses and may not hold up.

By UniProt entry, the sequences of proteins in these tests, tags left out. Where a name states a change or a piece, a line headed by the entry shows the natural chain unless it says otherwise.
UniProt Q9UNA4: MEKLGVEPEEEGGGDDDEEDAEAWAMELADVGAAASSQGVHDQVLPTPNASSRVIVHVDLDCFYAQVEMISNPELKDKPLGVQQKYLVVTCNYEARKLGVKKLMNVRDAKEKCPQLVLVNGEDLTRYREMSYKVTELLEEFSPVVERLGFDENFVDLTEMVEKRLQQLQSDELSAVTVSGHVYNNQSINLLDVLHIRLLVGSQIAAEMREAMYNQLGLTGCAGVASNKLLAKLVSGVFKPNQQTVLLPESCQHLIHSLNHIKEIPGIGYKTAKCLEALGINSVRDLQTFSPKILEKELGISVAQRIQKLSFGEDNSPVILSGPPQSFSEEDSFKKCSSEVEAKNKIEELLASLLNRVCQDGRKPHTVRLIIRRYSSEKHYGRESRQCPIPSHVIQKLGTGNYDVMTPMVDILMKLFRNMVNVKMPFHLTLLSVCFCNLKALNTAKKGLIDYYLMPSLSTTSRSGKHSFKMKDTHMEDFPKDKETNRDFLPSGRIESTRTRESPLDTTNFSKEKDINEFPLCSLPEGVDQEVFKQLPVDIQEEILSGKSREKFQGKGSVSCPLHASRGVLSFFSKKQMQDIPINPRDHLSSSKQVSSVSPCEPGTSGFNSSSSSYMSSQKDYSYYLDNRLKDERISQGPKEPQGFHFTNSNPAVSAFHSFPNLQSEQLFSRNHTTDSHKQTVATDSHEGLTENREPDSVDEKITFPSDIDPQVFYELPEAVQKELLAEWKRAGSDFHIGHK

Each molecule was assayed against DNA polymerase iota (Homo sapiens) (UniProt Q9UNA4) (assay: qHTS for Inhibitors of Polymerase Iota). Settings: Pol iota fluorescent replication assay, 10 min; series mostly up to 115 µM; activity, negative = inhibition: at the top concentration.
Procedure, shortened: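 Pol iota at 10 nM preincubated 15 min with compounds at room temperature; reaction started with fluorescent substrate, 50 nM final. Fluorescence read kinetically at 0 and 10 min; buffer-only wells as negative control.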
Potency is read from the fitted curve at half-maximal effect.

SMILES | activity, negative = inhibition | Potency
O=C(N/N=C/c1cn(-c2ccccc2)nc1-c1ccc(F)cc1)c1ccc2c(c1)OCO2 | inactive: 1.82% | 
Cc1noc(/C=C/c2cccnc2)c1[N+](=O)[O-] | inactive: 6.89% | 
CCOC(=O)Cn1c(=O)cc(-c2ccccc2)c2c(C)nn(C)c21 | inactive: -5.37% | 
N#Cc1ccc(OCC(=O)NC(=O)NC2CCS(=O)(=O)C2)cc1 (centres undefined) |  | inconclusive: 89.1 µM [inhibitor, single point]
Cc1cc(C(=O)NCCc2ccc(Cl)cc2)no1 |  | inconclusive: 1.41 µM [inhibitor, full curve, poor fit]
Cc1ccccc1C(=O)N/N=C/c1ccc([N+](=O)[O-])s1 |  | inconclusive: 70.8 µM [inhibitor, partial curve]
CCC(=O)Nc1sc2c(c1C#N)CCC2 |  | inconclusive: 28.2 µM [inhibitor, partial curve, poor fit]
Cc1nc(-c2ccc(NS(C)(=O)=O)cc2)cs1 |  | inconclusive: 89.1 µM [inhibitor, single point]
O=C(NCCOc1ccccc1)c1ccccc1Cl | inactive: 232% | 
O=C(CN1C(=O)S/C(=C\c2ccc(O)c([N+](=O)[O-])c2)C1=O)Nc1ccc(N2CCOCC2)cc1 | inactive: -10.3% | 
COc1ccc(Br)cc1/C=C/C(=O)NC(=S)Nc1ccc(Cl)c(C(=O)O)c1 | inactive: 17.3% | 
O=C1OC(c2ccccc2)(c2cc(Br)c(O)c(Br)c2)c2ccccc21 (centres undefined) |  | inconclusive: 17.8 µM [inhibitor, full curve]
CCc1ccccc1NC(=O)CSc1ncc2c(n1)-c1ccccc1N(Cc1ccc(C)cc1)S2(=O)=O |  | inconclusive: 89.1 µM [inhibitor, partial curve, poor fit]
O=C1C=C(N(CCO)Cc2ccccc2)c2ccccc2C1=O |  | active: 4.47 µM
Cc1csc(NC(=O)c2ccncc2)n1 |  | inconclusive: 15.8 µM [inhibitor, full curve]
O=C(Nc1cccc2cccc(NC(=O)c3ccco3)c12)c1ccco1 |  | inconclusive: 50.1 µM [inhibitor, partial curve, poor fit]
COc1ccc(OCC(=O)Nc2cccc(S(=O)(=O)N(C)c3ccccc3)c2)c([N+](=O)[O-])c1 | inactive: -3.42% | 
Nc1c(C(=O)NC2CC2)sc2nc3c(c(-c4ccco4)c12)CC/C3=C/c1ccco1 |  | inconclusive: 0.316 µM [inhibitor, full curve, poor fit]
Fc1ccc2c(c1)/C(=N/Nc1ccccn1)CCS2 | inactive: 84.8% | 
CCOC(=O)c1ccccc1NS(=O)(=O)c1c(-c2ccc(C)cc2)csc1C(=O)OC | inactive: 10.4% | 
Cc1ccc(S(=O)(=O)c2cn(Cc3ccccc3)c3cc(N4CCCC4)c(F)cc3c2=O)cc1C | inactive: 40.7% | 
CCOc1ccc(N(C)S(=O)(=O)c2ccc3[nH]cc(C(=O)NCCCOC)c(=O)c3c2)cc1 |  | inconclusive: 2.24 µM [inhibitor, partial curve, poor fit]
CCc1cc(C(=O)Nc2nnc(C3CC3)s2)sc1C |  | inconclusive: 50.1 µM [inhibitor, partial curve, poor fit]

SMILES | activity, negative = inhibition | Potency
CC(C)/C=C1\CC/C(=C\c2ccc(N(C)C)cc2)C1=O |  | inconclusive: 50.1 µM [inhibitor, partial curve, poor fit]
COc1cc(/C=C2\SC(=Nc3ccc(O)cc3)NC2=O)cc(OC)c1OC | inactive: 3.14% | 
O=C(CSc1nccn1-c1ccc(Cl)cc1)Nc1nc2ccccc2s1 |  | inconclusive: 100 µM [inhibitor, single point]
C=C1c2c(Cl)ccc(O)c2C(O)=C2C(=O)[C@]3(O)C(O)=C(C(N)=O)C(=O)[C@@H](N(C)C)[C@@H]3[C@@H](O)C12 (some centres undefined) |  | active: 2.51 µM
CCCC(=O)c1c(NC(C)C)cc(C)oc1=O |  | inconclusive: 89.1 µM [inhibitor, single point]
CSc1cccc(NC(=O)NNC(=O)C2CCN(S(=O)(=O)N(C)C)CC2)c1 |  | inconclusive: 89.1 µM [inhibitor, single point]
CCCCCCn1c(C)nc2c(c1=O)c1nc3ccccc3nc1n2/N=C/c1ccco1 |  | inconclusive: 15.8 µM [inhibitor, full curve, poor fit]
CCOc1c(Cl)cc(CNCc2ccncc2)cc1OC |  | inconclusive: 89.1 µM [inhibitor, single point]
Cc1ccc(S(=O)(=O)NN2C(=O)/C(=C/c3ccccn3)SC2=S)cc1 | inactive: 6.48% | 
CC(C)CCNC(=O)c1ccc2c(Cl)c3c(nc2c1)CCC3 | inactive: 107% | 
O=C(CCn1cccc1)N1CCc2ccccc21 |  | inconclusive: 12.6 µM [inhibitor, partial curve, poor fit]
O=C1NC(=S)S/C1=C\c1cc(Cl)cc(Cl)c1O |  | active: 31.6 µM
Cc1occc1C(=O)NCc1ccco1 |  | inconclusive: 112 µM [inhibitor, partial curve, poor fit]
O=C(/C(=C/c1cccnc1)n1ccnc1)c1ccc(Cl)cc1Cl |  | inconclusive: 17.8 µM [inhibitor, partial curve, poor fit]
COC(=O)c1ccc(CSc2nc3scc(-c4cccs4)c3c(=O)[nH]2)o1 |  | inconclusive: 15.8 µM [inhibitor, full curve, poor fit]
CCOC(=O)c1ccc(N2C(=O)c3n[nH]c(-c4cccs4)c3C2c2ccc(C)cc2)cc1 (centres undefined) |  | inconclusive: 89.1 µM [inhibitor, partial curve, poor fit]
O=C(CSC1=Nc2ccccc2C2CC=NN12)NCc1ccco1 (centres undefined) |  | inconclusive: 39.8 µM [inhibitor, partial curve]
Cc1ccc2nc(/C(C#N)=C/c3cn[nH]c3-c3ccc(F)cc3)[nH]c2c1 | inactive: 27.5% | 
O=C1CC(c2nc3ccccc3n2Cc2c(F)cccc2Cl)CN1c1cccc(C(F)(F)F)c1 (centres undefined) | inactive: 4.78% | 
CCOC(=O)N1CCc2c(sc3c2c(=O)n(Cc2ccccc2)c(=O)n3Cc2c(F)cccc2Cl)C1 | inactive: 55.5% | 
O=C(O)c1ccc(N=NN2CCCCCC2)cc1 | inactive: 19.9% | 
CC(=O)Cn1nnc2sc(-c3ccccc3)cc2c1=O |  | inactive
O=C(NCc1ccccc1)N1CCOc2ccccc21 |  | inconclusive: 89.1 µM [inhibitor, single point]

SMILES | activity, negative = inhibition | Potency
O=[N+]([O-])c1ccccc1/C=N/Nc1nccnc1Cl |  | inconclusive: 89.1 µM [inhibitor, partial curve, poor fit]
CCS(=O)(=O)C1=NN2C(=N)/C(=C\c3ccc(OC(=O)c4ccco4)c(OC)c3)C(=O)N=C2S1 |  | inconclusive: 17.8 µM [inhibitor, full curve]
Cc1nn2c(=O)cc(COC(=O)c3ccccc3NC(=O)c3ccccc3C)nc2s1 | inactive: -16.4% | 
CCCC[n+]1c(/C=C/c2c(OC)cc(OC)cc2OC)ccc2ccccc21 |  | inconclusive: 56.2 µM [inhibitor, partial curve, poor fit]
COC(=O)c1c(NC(=O)CCCOc2ccc(C)cc2)sc2c1C(C(=O)OC)CC2 (centres undefined) |  | inconclusive: 89.1 µM [inhibitor, partial curve]
COc1ccc(-c2ccc(NS(=O)(=O)c3ccc(F)c(C(F)(F)F)c3)cc2)nn1 |  | inconclusive: 100 µM [inhibitor, partial curve, poor fit]
Cc1cc(NC(=O)c2cccc(S(=O)(=O)N3c4ccccc4CC3C)c2)no1 (centres undefined) |  | inconclusive: 17.8 µM [inhibitor, partial curve, poor fit]
CCCCCCCN(CCCCCCC)c1ccc(/C=C/c2ccnc3ccccc23)cc1 | inactive: 27.9% | 
Cc1ccc(-c2cc(C(=O)N3CCN(c4ccc(F)cc4)CC3)c3ccccc3n2)o1 |  | active: 35.5 µM
CCn1c(=O)n(CC)c2cc(N3CCCC3)c(NC(=O)c3cc(Br)ccc3OC)cc21 |  | inconclusive: 100 µM [inhibitor, single point]
O=c1c2ccccc2nc2n1CC/C2=C/N1CCN(c2cccc(C(F)(F)F)c2)CC1 |  | inconclusive: 35.5 µM [inhibitor, partial curve, poor fit]
CC1CC1C(=O)OCC(=O)Nc1ncc(Cl)cc1Cl (centres undefined) |  | active: 14.1 µM
CC1CCc2c(sc(NC(=O)CCCOc3ccc(C(C)(C)C)cc3)c2C(N)=O)C1 (centres undefined) | inactive: 19.7% | 
C=CCOc1ccc2c(c1)c(S(=O)(=O)c1ccc(C)cc1)cn2COC |  | inconclusive: 79.4 µM [inhibitor, partial curve]
O=C(CN1C(=O)NC2(CCCCCC2)C1=O)N1CCCCC1 |  | inconclusive: 1.58 µM [inhibitor, full curve, poor fit]
CCCCN1C(=O)C(=O)N(CC(=O)Nc2sc(CC)cc2C(=O)OCC)C1=O |  | active: 79.4 µM
CC(=O)Nc1c(Cl)cc2c(c1Cl)Cc1cc(C#N)ccc1-2 |  | inconclusive: 89.1 µM [inhibitor, partial curve, poor fit]
CCc1ccccc1NC(=O)Cn1ncc2c(C)n(Cc3ccccc3F)c(C)c2c1=O | inactive: 49.5% | 
CCc1ccc(Nc2nc(N)nc(CSc3nnnn3-c3ccccc3)n2)cc1 |  | inconclusive: 39.8 µM [inhibitor, partial curve]
CCOc1ccccc1NC(=O)C(CC(C)C)NS(=O)(=O)c1ccc2c(c1)CCN2C(C)=O (centres undefined) |  | inconclusive: 70.8 µM [inhibitor, single point]
COC(=O)c1sc(-c2ccc(C(C)(C)C)cc2)cc1NC(=O)CSCC(=O)O |  | active: 79.4 µM
COc1cccc(OCc2cc(/C=N/NC(=O)c3ccn[nH]3)ccc2OC)c1 |  | inconclusive: 39.8 µM [inhibitor, single point]

By substructure: the entries above containing bromine (three)
SMILES | activity, negative = inhibition | Potency
COc1ccc(Br)cc1/C=C/C(=O)NC(=S)Nc1ccc(Cl)c(C(=O)O)c1 | inactive: 17.3% | 
O=C1OC(c2ccccc2)(c2cc(Br)c(O)c(Br)c2)c2ccccc21 (centres undefined) |  | inconclusive: 17.8 µM [inhibitor, full curve]
CCn1c(=O)n(CC)c2cc(N3CCCC3)c(NC(=O)c3cc(Br)ccc3OC)cc21 |  | inconclusive: 100 µM [inhibitor, single point]
